From PubChem BioAssay AID488837 (National Center for Advancing Translational Sciences (NCATS), 2010)
In all, about 330,000 compounds went through this assay and about 20 (0.006%) were called active. Inconclusive means that the source gave no clear call. Such entries were picked first, then a sample of the others. The call rests on the fitted dose curve; in most records, active means well fitted inhibition curve with a large enough effect; inconclusive means small, poorly fitted or top-dose-only effect, or effect the other way; inactive means flat fitted curve, though single readings scatter. Potencies of inconclusive entries are doubtful fits and often do not repeat.

Amino acid sequences for entries named in this document (tags omitted). A change or cut given only in a name is not applied to a line headed by its entry.
UniProt O00167: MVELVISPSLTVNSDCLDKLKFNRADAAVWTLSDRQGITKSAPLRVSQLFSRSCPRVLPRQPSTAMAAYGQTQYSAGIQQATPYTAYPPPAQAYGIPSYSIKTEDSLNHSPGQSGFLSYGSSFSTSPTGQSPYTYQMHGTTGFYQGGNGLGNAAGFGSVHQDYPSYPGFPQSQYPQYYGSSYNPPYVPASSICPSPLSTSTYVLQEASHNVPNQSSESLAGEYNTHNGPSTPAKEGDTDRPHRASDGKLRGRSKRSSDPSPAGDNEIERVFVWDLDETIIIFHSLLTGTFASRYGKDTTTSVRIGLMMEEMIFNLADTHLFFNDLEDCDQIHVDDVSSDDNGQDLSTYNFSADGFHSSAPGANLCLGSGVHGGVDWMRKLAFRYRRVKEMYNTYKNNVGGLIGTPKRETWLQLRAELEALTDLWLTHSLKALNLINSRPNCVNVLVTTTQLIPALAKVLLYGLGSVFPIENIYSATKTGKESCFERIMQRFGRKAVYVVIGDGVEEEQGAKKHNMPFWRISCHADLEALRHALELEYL

biological target: Protein phosphatase EYA2 (Homo sapiens) (UniProt O00167); experiment: qHTS Assay for Inhibitors of the Phosphatase Activity of Eya2; conditions: recombinant Eya2, OMFP fluorescence dephosphorylation (OMFP is methylfluorescein phosphate); activity, negative = inhibition: at 76.9 µM (top of the series) unless noted
Method in brief: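 Eya2 (0.2 uM) preincubated 10 min at ambient with compound, then OMFP substrate added at 50 uM; 10 min reaction in 50 mM HEPES pH 7.5, 50 mM NaCl, 5 uM MgCl2, 0.05% BSA, 1 mM DTT. Fluorescence read at Ex 485/Em 525 nm.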
On the % scale 0 is the no-effect control and ±100 the full control effect; potency means the concentration at half of the fitted maximal effect.

Which Potency does the source give for `CC(=O)Nc1ccc(OC(=O)Oc2ccc(NC(C)=O)cc2)cc1` here?
The Potency was inconclusive: 100 µM [inhibitor, single point].

Which Potency does the source give for `COC(=O)N/N=C/c1cn(Cc2ccccc2F)c2ccccc12` here?
Its Potency is inconclusive: 89.1 µM [inhibitor, single point].

How did the Potency turn out when `Cc1nn(-c2ccc(F)cc2)c2sc(C(=O)OCC(=O)N3CCC(C)CC3)cc12` was run?
The Potency was “inactive”.

How did the Potency turn out when `CC(=O)c1cccc(CN2CCN(C3CCCCC3)C(CCO)C2)c1` (stereo unspecified) was run?
Its Potency is inconclusive: 25.1 µM [inhibitor, single point].

For `Cc1ccc(C2=NN=C(NC(=O)CSc3nc(C)cc(C)n3)SC2)cc1`, which Potency is on record?
Its Potency is “inactive”.

For `O=C1c2cccc3c(N4CCCCC4)ccc(c23)C(=O)N1c1ccc(O)cc1`, which Potency is on record?
The Potency was inconclusive: 63.1 µM [activator, partial curve, poor fit].

Which Potency does the source give for `O=C(Nc1ccc(NC(=O)c2ccco2)nc1)c1cccc(F)c1` here?
The Potency was inconclusive: 100 µM [inhibitor, single point].

With `O=C(NC(CC(=O)N1CCCC(C(F)(F)F)C1)c1ccccc1)c1ccccc1Cl` (stereo unspecified) as the compound, how does the Potency read?
Its Potency is inconclusive: 100 µM [inhibitor, single point].

How did the Potency turn out when `CCOC(=O)c1c(C)n(C)c2ccc(OC)c(NC(=O)CCN3CCC(Cc4ccccc4)CC3)c12` was run?
The Potency was “inactive”.

For `O=C(NC(=S)NC1CC1)c1cccnc1`, which Potency is on record?
Its Potency is inconclusive: 31.6 µM [inhibitor, partial curve, poor fit].

How did the Potency turn out when `COc1nc(OC/C(N)=N/O)nc(N2CCOCC2)n1` was run?
The Potency was inconclusive: 126 µM [inhibitor, single point].

`C=CCn1c(O)c(CN2CCCCC2)c(C)c(C#N)c1=O` was tested. Which Potency did it give?
The Potency was “inactive”.

How did the Potency turn out when `O=S(=O)(NC(=S)NC1CCCCC1)c1cccs1` was run?
Its Potency is “inactive”.

For `Cc1[nH]n(-c2ccccc2)c(=O)c1C(=O)c1ccc(Cl)cc1`, which Potency is on record?
The Potency was inconclusive: 14.1 µM [inhibitor, single point].

For `O=C(CCN1C(=O)C2C3C=CC(C3)C2C1=O)NCc1cccnc1` (stereo unspecified), which Potency is on record?
The Potency was “inactive”.

With `COc1ccc(S(=O)(=O)NC(C)C)cc1C(=O)N1CCOCC1` as the compound, how does the Potency read?
The Potency was “inactive”.

`COc1ccc(N2CC(C(=O)Nc3nnc(SCC(=O)NC(C)(C)C)s3)CC2=O)cc1` (stereo unspecified) was tested. Which Potency did it give?
The Potency was inconclusive: 89.1 µM [inhibitor, single point].

With `NNC(=O)c1ccc(COc2cccc3ccccc23)o1` as the compound, how does the Potency read?
The Potency was inconclusive: 89.1 µM [inhibitor, single point].

With `COc1ccc(NC(=O)C2CC(c3c(F)cccc3Cl)=NO2)cc1` (stereo unspecified) as the compound, how does the Potency read?
Its Potency is “inactive”.

For `Cc1ccc(S(=O)(=O)N(CCC(=O)NCc2ccc(S(N)(=O)=O)cc2)c2ccccc2)cc1`, which Potency is on record?
The Potency was inconclusive: 17.8 µM [inhibitor, single point].

`CCCNC(=O)CCn1nc(-c2ccc(Cl)cc2)c2ccccc2c1=O` was tested. Which Potency did it give?
The Potency was inconclusive: 22.4 µM [inhibitor, partial curve, poor fit].

`Cc1ccc(CNC(=O)c2ccc(Cn3nc(C)cc3C)o2)cc1` was tested. Which Potency did it give?
The Potency was “inactive”.

For `CN1/C(=C\C=C2/SC(=S)NC2=O)C(C)(C)c2ccccc21`, which Potency is on record?
Its Potency is inconclusive: 25.1 µM [activator, partial curve].

`O=C(OCCn1cncn1)c1cc2ccccc2oc1=O` was tested. Which Potency did it give?
Its Potency is “inactive”.

Which Potency does the source give for `COc1ccc(NC(=O)C2CCN(C(=O)c3ccco3)CC2)c(OC)c1` here?
The Potency was inconclusive: 100 µM [inhibitor, single point].

`O=C(CCCc1ccccc1)NCCC1=CCCCC1` was tested. Which Potency did it give?
Its Potency is inconclusive: 28.2 µM [inhibitor, single point].

With `CCOc1ccc(-c2csc(NC(=O)c3ccco3)n2)cc1` as the compound, how does the Potency read?
Its Potency is inconclusive: 20 µM [inhibitor, single point].

With `O=C(NCC1(N2CCOCC2)CCCCC1)c1cccc(S(=O)(=O)N2CCc3ccccc3C2)c1` as the compound, how does the Potency read?
The Potency was inconclusive: 100 µM [inhibitor, single point].

For `COc1ccc(NC(=S)N(Cc2ccc(C)cc2)Cc2ccccn2)cc1`, which Potency is on record?
The Potency was “inactive”.

Which Potency does the source give for `O=C(c1ccccc1NS(=O)(=O)c1ccc(F)cc1F)N1CCCCC1` here?
The Potency was inconclusive: 89.1 µM [inhibitor, partial curve].

For `[O-]/C(=C(\C(=S)NCc1ccco1)[n+]1ccccc1)c1ccccc1Br`, which Potency is on record?
The Potency was inconclusive: 22.4 µM [inhibitor, single point].

For `CC(O)(c1ccccc1)C(c1ccccc1)C1CCCCN1` (stereo unspecified), which Potency is on record?
The Potency was inconclusive: 22.4 µM [inhibitor, single point].

For `COc1ccc(NC(=O)c2cc3ccccc3cc2O)cc1`, which Potency is on record?
The Potency was inconclusive: 112 µM [inhibitor, single point].

How did the Potency turn out when `Clc1ccc(-c2ccc(SCc3ccccn3)nn2)cc1` was run?
The Potency was “inactive”.

For `CCCCNCCOCCOc1ccc(Cl)cc1Br`, which Potency is on record?
The Potency was “inactive”.

`COc1ccc(/C=N/NC(=O)c2ccncc2)cc1OC` was tested. Which Potency did it give?
The Potency was “inactive”.

`O=C1N=C(N2CCN(c3ccccc3)CC2)S/C1=C/c1ccco1` was tested. Which Potency did it give?
The Potency was inconclusive: 89.1 µM [inhibitor, single point].

For `CCOc1cc(-c2noc(CCCC(=O)NC3CCCCC3)n2)ccc1OC`, which Potency is on record?
The Potency was “inactive”.

For `COC(=O)c1ccccc1NC(=O)Oc1ccc(F)cc1`, which Potency is on record?
Its Potency is “inactive”.

For `COc1ccc(NC(=O)N2CCC(CO)(CC3CCCCO3)CC2)c(OC)c1` (stereo unspecified), which Potency is on record?
The Potency was inconclusive: 100 µM [inhibitor, single point].

With `O=C(NNC(=S)NC(=O)c1ccccc1)c1cccnc1` as the compound, how does the Potency read?
Its Potency is inconclusive: 100 µM [inhibitor, single point].

For `CN1CCCN(C(=O)CSc2ccccc2)CC1`, which Potency is on record?
Its Potency is inconclusive: 200 µM [inhibitor, partial curve].

Which Potency does the source give for `CC(C)NC(=O)NNC(=O)Cn1nnc(-c2cccc(Cl)c2Cl)n1` here?
Its Potency is inconclusive: 100 µM [inhibitor, single point].

`CC(=O)Nc1ccc2c(c1)OCCO2` was tested. Which Potency did it give?
The Potency was “inactive”.

How did the Potency turn out when `Cc1ccc(S(=O)(=O)N(C)CC(=O)N2CCCCCC2)cc1` was run?
Its Potency is inconclusive: 20 µM [inhibitor, single point].

Which Potency does the source give for `CN(C)CCCn1c(=O)n(Cc2ccccc2)c(=O)c2c3c(sc21)CCCCC3` here?
The Potency was inconclusive: 50.1 µM [inhibitor, partial curve, poor fit].

How did the Potency turn out when `CCOc1ccccc1CNC(=O)c1nn(C)c2c1CS(=O)(=O)c1ccccc1-2` was run?
Its Potency is inconclusive: 28.2 µM [inhibitor, partial curve].

`N/C(Cc1nc(-c2ccc(Cl)cc2)cs1)=N/O` was tested. Which Potency did it give?
Its Potency is inconclusive: 89.1 µM [inhibitor, single point].

`COc1ccc(C(=O)NCC(=O)N2CCN(c3ccccc3)CC2)cc1` was tested. Which Potency did it give?
The Potency was inconclusive: 14.1 µM [inhibitor, single point].

For `CCN(CC)c1nc2ccccc2nc1C(C#N)C(=O)NCCCOC` (stereo unspecified), which Potency is on record?
The Potency was “inactive”.

How did the Potency turn out when `Cc1ccc(/C=C/C(=O)Nc2nnc(C)s2)o1` was run?
The Potency was “inactive”.

With `O=C(NCC1CCCO1)c1cccc(Oc2ccc([N+](=O)[O-])cc2Cl)c1` (stereo unspecified) as the compound, how does the Potency read?
Its Potency is inconclusive: 20 µM [inhibitor, single point].

How did the Potency turn out when `O=C(CSc1nnc(CNC(=O)c2c(F)cccc2Cl)o1)Nc1ccc2c(c1)OCCO2` was run?
Its Potency is inconclusive: 79.4 µM [inhibitor, single point].

`COc1ccccc1CN1CCN(C(c2ccccc2)c2ccccc2)CC1` was tested. Which Potency did it give?
The Potency was inconclusive: 100 µM [inhibitor, single point].

How did the Potency turn out when `CCO[C@@H]1OC(C(=O)N2CCN(Cc3ccccc3)CC2)=C[C@H](c2ccc(Br)cc2)[C@H]1CCCO` was run?
The Potency was inconclusive: 10000 µM [inhibitor, partial curve, poor fit].

With `O=C(CSc1nc2c(c(=O)n1-c1ccccc1)SCC2)NCC1CCCO1` (stereo unspecified) as the compound, how does the Potency read?
Its Potency is inconclusive: 100 µM [inhibitor, single point].

For `COc1ccccc1N(C)S(=O)(=O)c1ccc(C(=O)OC(C)C(=O)NCc2ccc3c(c2)OCO3)cc1` (stereo unspecified), which Potency is on record?
The Potency was inconclusive: 22.4 µM [inhibitor, single point].

For `CC1(C)Cc2c(c(N3CCOCC3)nc3sc(C(=O)Nc4cccc(Cl)c4)c(N)c23)CO1`, which Potency is on record?
The Potency was inconclusive: 63.1 µM [inhibitor, partial curve, poor fit].

`NC(=O)C1CCN(C(c2ccccc2)c2nnnn2C2CCCC2)CC1` (stereo unspecified) was tested. Which Potency did it give?
The Potency was “inactive”.

Which Potency does the source give for `CCn1cc(C(c2ccccc2)C(C(C)=O)[N+](=O)[O-])c2ccccc21` (stereo unspecified) here?
Its Potency is inconclusive: 89.1 µM [inhibitor, single point].

With `O=C(c1cnc2ccccc2n1)N1CCN(c2ccc(C(F)(F)F)cn2)CC1` as the compound, how does the Potency read?
The Potency was inconclusive: 126 µM [inhibitor, single point].

With `O=C(NC(=S)Nc1ccc2c(c1)OCCO2)c1ccccc1` as the compound, how does the Potency read?
Its Potency is “inactive”.

With `CC(C)N(Cc1cc2ccccc2[nH]c1=O)C(=O)c1cccc([N+](=O)[O-])c1` as the compound, how does the Potency read?
Its Potency is inconclusive: 89.1 µM [inhibitor, single point].

With `COc1ccc(NC(=O)/C(C#N)=C\c2ccc(N3CCOCC3)o2)cc1` as the compound, how does the activity, negative = inhibition read?
The activity, negative = inhibition was inconclusive: 40.7% [activator].

How did the Potency turn out when `Cc1ccc(NC(=O)c2cccc3c2C(=O)N(C2CCCCC2)C3)c(Cl)c1` was run?
The Potency was inconclusive: 89.1 µM [inhibitor, single point].

For `Cc1ccc(NC(=O)N2CCSc3ccccc32)cc1`, which Potency is on record?
Its Potency is “inactive”.

`C=CCn1c(COc2ccccc2F)nnc1SCC(=O)c1c[nH]c2ccccc12` was tested. Which Potency did it give?
The Potency was “inactive”.

With `Nc1c(C(=O)c2ccccc2)sc2nsc(SCCN3CCOCC3)c12` as the compound, how does the activity, negative = inhibition read?
The activity, negative = inhibition was inconclusive: 30.2% [activator].

For `Nc1ncnc(Nc2ccc(S(N)(=O)=O)cc2)n1`, which Potency is on record?
Its Potency is inconclusive: 79.4 µM [activator, single point].

With `COCCNC(=O)c1cccc(OC2CCN(Cc3ccc(F)c(OC)c3)CC2)c1` as the compound, how does the Potency read?
The Potency was inconclusive: 17.8 µM [inhibitor, single point].

With `Nc1c(S(=O)(=O)O)cc(Nc2ccc(Nc3nc(Cl)nc(Nc4ccc(S(=O)(=O)O)cc4)n3)c(S(=O)(=O)O)c2)c2c1C(=O)c1ccccc1C2=O` as the compound, how does the Potency read?
The Potency was inconclusive: 100 µM [activator, single point].
